The supplement of paper PMC6078165

Tested on: BT20
Assay: relative JC-1 red fluorescence (viability) vs pre-drug, coculture with fibroblast (fraction); higher = more viable cancer cells
Method: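 JC-1 labelled TNBC cells cocultured 1:1 (1,500 cells each) with CellTrace Violet stained primary or stromal fibroblasts in 384-well plates in FluoroBrite medium, treated with one of 42 anticancer drugs at 0.1, 1, 10 or 100 uM. JC-1 red fluorescence (mitochondrial integrity in cancer cells only) was read by plate reader every 8 h for 72 h. Values are normalised to each well's pre-drug value. The stock of one drug was tenfold lower, so its dose labels may be too high.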

CC(C)C[C@H](NC(=O)[C@H](Cc1ccccc1)NC(=O)c1cnccn1)B(O)O [Bortezomib]
relative JC-1 red fluorescence
Details	8 h	16 h	24 h	32 h	40 h	48 h	56 h	64 h	72 h
0.1 µM, coculture fibroblast: C12385	0.937	0.964	0.909	0.91	0.858	0.844	0.854	0.864	0.875
0.1 µM, coculture fibroblast: H6013	0.941	0.879	0.786	0.739	0.813	0.82797	0.824	0.855	0.849
0.1 µM, coculture fibroblast: H6019	0.849	0.7671	0.765	0.734	0.732	0.769	0.808	0.84	0.862
0.1 µM, coculture fibroblast: H6076	0.949	0.85	0.767	0.773	0.823	0.838	0.7541	0.77686	0.834
0.1 µM, coculture fibroblast: H6231	0.961	0.893	0.835	0.807	0.848	0.831	0.842	0.853	0.869
0.1 µM, coculture fibroblast: HADF	0.9965	0.866	0.808	0.956	0.958	0.816	0.912	0.823	0.86
0.1 µM, coculture fibroblast: HCFa	0.946	0.887	0.884	0.819	0.837	0.863	0.899	0.91	0.81
0.1 µM, coculture fibroblast: HCPF	0.963	0.8832	0.807	0.766	0.8007	0.8	0.812	0.833	0.841
0.1 µM, coculture fibroblast: HHSteC	0.946	0.873	0.869	0.814	0.816	0.804	0.835	0.843	0.839
0.1 µM, coculture fibroblast: HMF	0.967	0.836	0.684	0.625	0.569	0.5554	0.656	0.688	0.763
0.1 µM, coculture fibroblast: HPFa	0.967	0.958	0.827	0.843	0.86	0.8494	0.88	0.888	0.835
0.1 µM, coculture fibroblast: HUF	0.8741	0.817	0.81	0.754	0.706	0.687	0.699	0.702	0.705
0.1 µM, coculture fibroblast: Hs5	0.9406	0.9	0.902	0.899	0.906	0.91	0.946	0.943	0.965
0.1 µM, coculture fibroblast: Hs27A	0.835	0.891	0.858	0.854	0.856	0.943	0.8723	0.783	0.789
0.1 µM, coculture fibroblast: Hs343T	0.983	0.872	0.679	0.622	0.62077	0.6258	0.641	0.673	0.687
0.1 µM, coculture fibroblast: WS1	0.865	0.793	0.791	0.755	0.698	0.704	0.7212	0.735	0.754
1 µM, coculture fibroblast: C12385	0.895	0.816	0.65	0.526	0.427	0.398	0.368	0.354	0.347
1 µM, coculture fibroblast: H6013	0.95	0.791	0.7308	0.627	0.571	0.571	0.598	0.591	0.591
1 µM, coculture fibroblast: H6019	0.8485	0.741	0.613	0.539	0.492	0.496	0.503	0.513	0.519
1 µM, coculture fibroblast: H6076	0.973	0.81	0.707	0.681	0.703	0.722	0.749	0.762	0.756
1 µM, coculture fibroblast: H6231	0.848	0.954	0.743	0.58	0.528	0.486	0.461	0.434	0.424
1 µM, coculture fibroblast: HADF	0.825	0.851	0.858	0.773	0.724	0.682	0.656	0.621	0.595
1 µM, coculture fibroblast: HCFa	0.91	0.755	0.658	0.511	0.448	0.421	0.426	0.419	0.398
1 µM, coculture fibroblast: HCPF	0.926	0.9	0.755	0.6584	0.59	0.549	0.517	0.514	0.494
1 µM, coculture fibroblast: HHSteC	0.901	0.778	0.719	0.586	0.521	0.474	0.471	0.445	0.421
1 µM, coculture fibroblast: HMF	0.85	0.866	0.665	0.56	0.466	0.419	0.408	0.404	0.4
1 µM, coculture fibroblast: HPFa	0.9253	0.823	0.824	0.715	0.731	0.696	0.697	0.695	0.668
1 µM, coculture fibroblast: HUF	0.911	0.779	0.773	0.67	0.624	0.602	0.599	0.595	0.59
1 µM, coculture fibroblast: Hs5	0.876	0.851	0.7011	0.606	0.528	0.499	0.486	0.46	0.444
1 µM, coculture fibroblast: Hs27A	0.824	0.803	0.944	0.859	0.806	0.7592	0.763	0.7446	0.7125
1 µM, coculture fibroblast: Hs343T	0.782	0.89	0.733	0.611	0.496	0.449	0.424	0.425	0.425
1 µM, coculture fibroblast: WS1	0.915	0.8148	0.726	0.603	0.522	0.512	0.492	0.484	0.487

Values are relative to the signal before dosing, not to a vehicle control; the signal also falls without drug.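 Fibroblast labels denote human fibroblasts, mainly primary ones from uterus (C12385, HUF), lung (H6013), bone (Hs27A), adrenal (HADF) and skin (WS1), plus mammary HMF and breast cancer-associated Hs343T. Cancer cells are basal-like or mesenchymal-like triple-negative breast cancer lines. A hit is a response shift exceeding 3x replicate standard deviation. The tissue of the other fibroblasts is not given here.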
